Test results from patent US20250213569A1, “METHODS AND COMPOSITIONS FOR MEASURING AND INHIBITING EXONUCLEASE ACTIVITY” (priority 2020, published 2025).
Some entries repeat one wording, which the source may state once for all of them.

Assay: Autofluorescence of compounds
Details: not given

Compound | autofluorescence
CC(C)=CCc1c2c(c3occ(-c4ccc(O)c(O)c4)c(=O)c3c1O)C=CC(C)(C)O2 [Compound 69, Pomiferin] | none of these compounds have autofluorescence
CC(C)=CCc1c(O)ccc(C(=O)/C=C/c2ccc(O)cc2)c1O [Compound 77, Isobavachalcone] | none of these compounds have autofluorescence
CC(C)=CCOc1ccc(/C=C/C(=O)c2ccc(OCC=C(C)C)cc2OCC(=O)O)cc1 [Compound 68, Sofalcone, reference compound] | none of these compounds have autofluorescence
O=C(NCc1ccc(F)cc1)C1C(=O)N(O)C(=O)c2cc(C(F)(F)F)ccc21 (centres unmarked) [Compound 112, 7-trifluoromethyl-N-(4-fluorobenzyl)-2-hydroxy-1,3-dioxo-4H-isoquinoline-4-carboxamide] | none of these compounds have autofluorescence

Same assay, conditions: 250 μM final concentration

Compound | autofluorescence
Cc1ccc2ccc(C(=O)O)c(O)c2n1 [Compound 78, 2-methyl-8-hydroxyquinoline-7-carboxylic acid] | none of these compounds have autofluorescence
O=C(c1ccccc1)c1ccc2ccc(/C=C/c3ccc(O)c(O)c3)nc2c1O [Compound 96, 7-benzoyl-2-(3,4-dihydroxyvinyl)-8-hydroxyquinoline] | none of these compounds have autofluorescence
Oc1ccc(CC2NCCc3cc(O)c(O)cc32)cc1O (centres unmarked) [Compound 54, Tetrahydropapaveroline] | none of these compounds have autofluorescence
Cc1c(S(=O)(=O)[O-])oc2c1C(=O)C(=O)c1c-2ccc2c1CCCC2(C)C.[Na+] [Compound 60, Tanshinone IIA sulfonate] | none of these compounds have autofluorescence
